# Measured values from PubChem BioAssay AID2685 (National Center for Advancing Translational Sciences (NCATS), 2010).
# Some of the results follow. These are further read-outs of the screen, such as a control signal, another cell line or another target. No call is given for them. The list favours compounds with an active or inconclusive main result. Potencies come from curve fits of mixed quality, noted in brackets.
# Assay: qHTS Assay for Lipid Storage Modulators in Drosophila S3 Cells;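 as to cell number change: cells counted by Cell Tracker Red CMTPX staining in the red channel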
# Settings: BODIPY lipid droplet fluorescence, 18-24 h; for cell number change: measured here: cell count max response, cells fed with added oleic acid
# Procedure, shortened: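 Laser-scanning cytometry quantifies lipid droplet accumulation (500–530 nm total intensity; droplet/cell object ratio) in oleic acid-fed (400 uM added) Drosophila S3 cells treated with a concentration series. 20 uM Triacsin C defined 100% inhibition.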
# [1] = measured here: lipid fluorescence (Fed channel) AC50, cells fed with added oleic acid
# [2] = measured here: cell number channel AC50, cells fed with added oleic acid
SMILES,cell number change,AC50 [1],AC50 [2]
Cc1ccc(-n2c(=O)c3sccc3n(CC(=O)NC3CCCC3)c2=O)cc1,-23.8%,–,–
COc1ccc(C(=O)NC(=S)NCc2ccco2)cc1,24.5%,–,–
CC1Sc2ccc(C(=O)Nc3ccc(S(=O)(=O)N(C)C)cc3)cc2NC1=O (configuration not stated),–,"4.61 µM [falling, partial curve, poor fit]",–
CCCCn1c(N)c(N(CC(C)C)C(=O)c2c(CC)noc2C)c(=O)[nH]c1=O,-9.94%,"23.1 µM [rising, single point]",–
Cc1ccc(-c2nc3ccsc3c(=O)[nH]2)cc1,5.83%,–,–
Cc1nn(C(=O)Cn2cc([N+](=O)[O-])cn2)c(C)c1Cl,5.54%,–,–
O=C(Cc1ccc2cccnc2c1)c1ccc(O)cc1O,-46.2%,"20.6 µM [falling, partial curve]","23.1 µM [falling, single point]"
CCn1c2ccccc2c2cc(NC(=S)N3CCOCC3)ccc21,-19.3%,"0.259 µM [falling, full curve, poor fit]",–
Cc1cc(NCc2ccco2)n2c(nc3ccccc32)c1C#N,-3.53%,"4.11 µM [falling, single point]",–
Cc1cc(NC(=S)NC(=O)c2ccco2)c2ccccc2n1,–,–,"6.51 µM [rising, single point]"
Cc1ccc(-n2c(C)cc(C)c(C#N)c2=O)cc1Cl,-1.45%,"0.0651 µM [rising, full curve]",–
Cc1ccc(S(=O)(=O)NNc2nc3ccccc3nc2C(F)(F)F)cc1,65.9%,–,"29.1 µM [rising, single point]"
N/C(=N\OC(=O)CCC1CCCCC1)c1ccccn1,-9.9%,–,"3.66 µM [rising, single point]"
O=c1/c(=C/c2ccc(CNS(=O)(=O)c3ccccc3)o2)sc2n1CCN=2,24.8%,"0.731 µM [rising, single point]","1.16 µM [rising, full curve, poor fit]"
COCCCNC(=O)C(C#N)c1nc2ccccc2nc1N1CCCC1 (configuration not stated),2.33%,–,–
CCCCn1c(SCC(=O)Nc2cc(C)on2)nc2cc(S(N)(=O)=O)ccc21,-27.4%,"0.146 µM [falling, full curve, poor fit]",–
C/C(=N/NC(=O)c1ccc2c(c1)OCO2)c1cccc([N+](=O)[O-])c1,-3.12%,"6.51 µM [rising, single point]",–
COc1ccc(C(=O)CCNc2ccc3c(c2)OCCO3)cc1,25.6%,–,–
CCCCn1c(N)c(N(CCOC)C(=O)c2ccc3c(c2)OCCO3)c(=O)[nH]c1=O,-100%,–,"29.1 µM [falling, partial curve, poor fit]"
COc1cc(N)c(C(=O)c2nccc3cc(OC)c(OC)cc23)cc1OC,31.8%,–,"29.1 µM [rising, single point]"

SMILES,cell number change,AC50 [1],AC50 [2]
Cc1ccc(-c2ccc(C(=O)NCCCNC(=O)c3cnccn3)o2)cc1Cl,9.21%,–,–
COc1cc(CCC(=O)Nc2cccc(S(=O)(=O)N(C)C)c2)cc(OC)c1OC,-48.9%,"7.31 µM [falling, partial curve]","0.651 µM [falling, full curve]"
CCOC(=O)CN1C(=O)C(=O)N(Cc2ccccc2F)C1=O,-2.99%,"0.13 µM [falling, full curve, poor fit]",–
COc1cc2c(cc1OC)C(C)N(C(=O)c1cc3c(C)cc(C)cc3[nH]1)CC2 (configuration not stated),19.5%,"29.1 µM [rising, partial curve, poor fit]",–
CC(C)Oc1ccc(CNC(=O)c2cc(S(=O)(=O)N3CCOCC3)cn2C)cc1,-19.4%,–,–
CC(C)(C)n1ncc2c(=O)n(Cc3ccccc3Br)cnc21,-4.53%,"0.146 µM [rising, single point]",–
Cc1ccc(S(=O)(=O)N2CCCC(C(=O)N(Cc3cccs3)C3CC3)C2)cc1 (configuration not stated),-23.1%,"11.6 µM [falling, partial curve]",–
CC(C)c1ccc(NC(=O)CN2C(=O)NC3(CCCC3)C2=O)cc1,9.83%,"3.26 µM [rising, single point]",–
O=C(CSc1nc2ccccc2c(=O)n1-c1ccccc1)NCc1ccco1,-30.2%,–,"4.11 µM [falling, full curve, poor fit]"
COc1ccc(CN(Cc2cccn2C)C(=O)c2cc3cc(OC)ccc3[nH]2)cc1,0.272%,"0.731 µM [rising, partial curve, poor fit]","0.461 µM [rising, full curve]"
Fc1cccc(CSc2nc3ncccc3[nH]2)c1,-18.6%,–,–
CCc1ccccc1NC(=O)C(Cc1ccccc1)c1nn[nH]n1 (configuration not stated),4.74%,–,"0.651 µM [rising, single point]"
O=C(c1ccco1)N1CCN(Cc2nc3ccccc3c(=O)n2-c2ccc(F)cc2)CC1,–,–,"1.84 µM [rising, partial curve]"
Cc1[nH]c2ccccc2c1C(Nc1nccs1)c1ccncc1 (configuration not stated),–,"0.231 µM [rising, partial curve]",–
Cc1ccc(S(=O)(=O)Nc2ccc(N3CCN(C)CC3)nc2)cc1,-0.519%,"2.06 µM [falling, full curve, poor fit]",–
CCCCOC(=O)c1ccc(-c2ccc(/C=N/NC(=S)NCC)o2)cc1,–,–,"3.26 µM [rising, partial curve]"
CC(OC(=O)c1ccc(NS(=O)(=O)c2ccc3[nH]c(=O)[nH]c3c2)cc1)C(=O)Nc1cccc(Cl)c1Cl (configuration not stated),9.11%,"7.31 µM [rising, partial curve, poor fit]",–
O=C(O)c1cc(-c2cccnc2)nn1-c1ccccn1,-8.08%,"2.31 µM [falling, partial curve, poor fit]","3.66 µM [falling, partial curve]"
O=C(COC(=O)c1ccco1)Nc1nc2c(F)c(F)c(F)cc2s1,-34.1%,–,"0.326 µM [falling, full curve, poor fit]"
CCN(CC(=O)Nc1ccccc1C(F)(F)F)C(=O)c1ccc2c(c1)NC(=O)CS2,-3.3%,"0.411 µM [rising, full curve, poor fit]",–

SMILES,cell number change,AC50 [1],AC50 [2]
CCN1CCN(C(c2cccs2)C(C)NS(=O)(=O)c2ccc(F)cc2)CC1 (configuration not stated),-71.6%,–,"18.4 µM [falling, single point]"
O=[N+]([O-])c1ccc(S(=O)(=O)N2CCN=C2SCc2ccc(F)cc2)cc1,18.8%,"29.1 µM [rising, single point]",–
CC(C)CCNC(=O)C(c1ccco1)N(Cc1ccccc1)C(=O)c1snc(C(N)=O)c1N (configuration not stated),33.4%,"2.91 µM [rising, single point]","23.1 µM [rising, single point]"
Cc1ccc(NC(=O)CN(C)CC(=O)Nc2cccc(F)c2)cc1[N+](=O)[O-],-33.1%,–,"2.91 µM [falling, full curve]"
COCCN(C(=O)COC(=O)COc1ccc(Cl)c(C)c1)c1c(N)n(Cc2ccccc2)c(=O)[nH]c1=O,–,"20 µM [rising, single point]",–
CC1CCC(C(C)C)C(OCC(O)CN2CCCC(C)C2)C1 (configuration not stated),-19.7%,"0.651 µM [falling, single point]",–
O=C(CCCOc1ccc(Cl)cc1Cl)N/N=C/c1ccccc1O,-38.5%,"18.4 µM [falling, partial curve]","20.6 µM [falling, partial curve]"
COc1ccc(CN(C(=O)CCC(=O)Nc2cc(C)on2)C(C(=O)NC(C)(C)C)c2cccc(OC)c2OC)cc1 (configuration not stated),10.4%,–,–
CN(CC(=O)Nc1cccc(F)c1)CC(=O)N(C)CC(=O)Nc1ccccc1Br,-31.6%,–,"25.9 µM [falling, single point]"
COCCN(C(=O)COC(=O)C1=COCCO1)c1c(N)n(Cc2ccccc2)c(=O)[nH]c1=O,15.6%,"32.6 µM [rising, partial curve, poor fit]",–
CC(=O)Nc1ccc(S(=O)(=O)Nc2nccc(/C=C/c3ccc(Cl)cc3)n2)cc1,-20.5%,–,"0.411 µM [falling, full curve, poor fit]"
CC(=O)Nc1ccc(S(=O)(=O)NNC(=S)NCc2ccco2)cc1,-0.274%,"29.1 µM [falling, single point]",–
CC(NC(=O)CCn1c(=S)[nH]c2ccsc2c1=O)c1ccccc1 (configuration not stated),49.6%,"1.46 µM [rising, partial curve]","4.11 µM [rising, partial curve, poor fit]"
CC(=O)OCCN(CCCn1c(-c2ccncc2)nc2ccccc21)c1nc(-c2ccc(C)cc2)cs1,8.08%,–,–
COc1ccc([N+](=O)[O-])cc1NC(=O)Cn1ccc(C(F)(F)F)n1,24.2%,"1.64 µM [rising, full curve]","1.16 µM [rising, full curve, poor fit]"
O=C(COc1coc(CN2CCCc3ccccc32)cc1=O)Nc1cccc([N+](=O)[O-])c1,-53.5%,"29.1 µM [falling, single point]","10.3 µM [falling, partial curve]"
CCc1oc2c(C)c(O)ccc2c(=O)c1-c1ccc2ccccc2n1,1.66%,"23.1 µM [falling, partial curve, poor fit]",–
CCCCOC(=O)Nc1sc2c(c1C(=O)OC)CCC2,-14.4%,–,–
NC(=O)Cn1cnc(-c2ccccc2)c1,-2.74%,"1.16 µM [falling, full curve, poor fit]",–
Oc1ccccc1C(=S)N1CCCC1,1.46%,"29.1 µM [rising, single point]",–

# Reformatted tab-delimited: entries from further up
SMILES	cell number change	AC50 [1]	AC50 [2]
O=C(O)c1cc(-c2cccnc2)nn1-c1ccccn1	-8.08%	2.31 µM [falling, partial curve, poor fit]	3.66 µM [falling, partial curve]
O=C(COC(=O)c1ccco1)Nc1nc2c(F)c(F)c(F)cc2s1	-34.1%	–	0.326 µM [falling, full curve, poor fit]
CCN(CC(=O)Nc1ccccc1C(F)(F)F)C(=O)c1ccc2c(c1)NC(=O)CS2	-3.3%	0.411 µM [rising, full curve, poor fit]	–
